Results deposited as PubChem BioAssay AID1259425 (University of Nebraska Medical Center, 2018).
Here is one part, drawn at random, of about 14,000 reagents. Not all columns of the deposit are shown. No sequences are given here. The record does not give: the time to read-out.

- Screen: 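Find knockdowns that reproduce the gene expression pattern seen when KSR1 is lost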 (primary screen)
- Cell system: HCT116 human colon cancer cells
- Reagent: siRNA pool against human genes, 50 nM siRNA
- Measured: 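After 50 nM siRNA pool, branched-DNA assay measures six marker transcripts per well, minus blank, normalised to the geometric mean of two housekeeping transcripts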
- Reading the numbers: BNIP3L mRNA: higher = more BNIP3L transcript after knockdown; NDRG1 mRNA: higher = more NDRG1 transcript after knockdown; BNIP3 mRNA: higher = more BNIP3 transcript after knockdown; ALDOC mRNA: higher = more ALDOC transcript after knockdown

no.	gene symbol	BNIP3L mRNA, set 1	NDRG1 mRNA, set 1	BNIP3 mRNA, set 1	ALDOC mRNA, set 1
1	PCBP4	0.101	0.638	0.255	0.0278
2	IFIT2	0.286	1.14	0.26	0.0986
3	NAB1	0.0966	1.56	0.52	0.0396
4	SLIT1	0.145	0.239	0.284	0.0169
5	KITLG	0.103	0.0798	0.265	0.0382
6	RABEP1	0.136	0.339	0.247	0.0164
7	CD2AP	0.143	0.0872	0.316	0.033
8	UBXN1	0.118	0.0556	0.306	0.0237
9	BAALC	0.137	0.167	0.175	0.0177
10	KCNB2	0.0896	0.739	0.418	0.0151
11	OGFOD1	0.117	0.361	0.362	0.0266
12	GPBP1	0.142	0.181	0.238	0.0322
13	MPHOSPH9	0.156	0.204	0.439	0.0336
14	TOR1A	0.114	0.124	0.282	0.0293
15	KRT75	0.079	0.0996	0.191	0.0148
16	C2CD5	0.127	0.19	0.201	0.0165
17	CNR1	0.0825	0.208	0.316	0.0483
18	TMEM101	0.254	0.276	0.309	0.107
19	PPAT	0.08	0.128	0.286	0.0225
20	PSMG1	0.0365	0.119	0.167	0.0204
21	MPO	0.0874	0.0818	0.197	0.021
22	FAP	0.0483	0.253	0.285	0.00989
23	OGT	0.0791	0.19	0.31	0.041
24	TMX3	0.0353	0.116	0.29	0.00928
25	HK3	0.0729	0.0806	0.275	0.0054
26	THOC7	0.0913	0.269	0.251	0.0355
27	MAST2	0.0603	0.11	0.372	0.00604
28	SAA4	0.102	0.131	0.305	0.0496

A portion taken from the entries so far:
no.	gene symbol	BNIP3L mRNA, set 1	NDRG1 mRNA, set 1	BNIP3 mRNA, set 1	ALDOC mRNA, set 1
1	PCBP4	0.101	0.638	0.255	0.0278
2	IFIT2	0.286	1.14	0.26	0.0986
3	NAB1	0.0966	1.56	0.52	0.0396
4	SLIT1	0.145	0.239	0.284	0.0169

The listing continues.
no.	gene symbol	BNIP3L mRNA, set 1	NDRG1 mRNA, set 1	BNIP3 mRNA, set 1	ALDOC mRNA, set 1
29	TUBA8	0.0488	0.16	0.277	0.0177
30	PRDM11	0.188	0.135	0.272	0.032
31	USP3	0.0569	0.26	0.239	0.0207
32	NUDT4	0.141	0.084	0.293	0.0247
33	RAB40A	0.0929	0.0664	0.18	0.0151
34	ACBD4	0.0929	0.148	0.258	0.0795
35	TRIM45	0.156	0.344	0.184	0.0345
36	NTF3	0.0614	0.132	0.249	0.0128
37	HASPIN	0.083	0.344	0.28	0.00332
38	CTDNEP1	0.03	0.432	0.305	0.0557
39	AMACR	0.123	0.208	0.271	0.0231
40	DSCC1	1.34	3.86	4.06	0.367
41	NDUFC1	0.18	0.061	0.258	0.0251
42	NDUFB6	0.123	0.704	0.378	0.0564
43	ABI3	0.221	0.233	0.372	0.0701
44	SLAIN2	0.0633	0.147	0.335	0.026
45	GRID2	0.0663	0.122	0.373	0.018
46	MFSD1	0.131	0.159	0.311	0.0229
47	LCMT2	0.108	0.138	0.277	0.0442
48	FERMT2	0.134	0.509	0.197	0.0245
49	TRIM36	0.118	0.0483	0.153	0.00364
50	REX1BD	0.0654	0.0888	0.192	0.0266
